Reference: the supplement of paper PMC9433722
Structures can show the parent of a compound that is named as a salt. This is one part of the list. Most values come without repeats; read them as rough.

Key:
Saos-2 = test: cell viability (CCK-8) relative to DMSO control (% of control); higher = less cytotoxic; conditions: 10 µM; 48 h
U2OS = test: as above; conditions: 10 µM; 48 h

SMILES | cell viability (Saos-2) | cell viability (U2OS)
O=C(CCCCCCC(=O)Nc1ccccc1)NO [Vorinostat (SAHA)] | 23.8 | 17.9
CC(=O)OCC[N+](C)(C)C [Acetylcholine Chloride] | 62.3 | 110
c1ccc2c(c1)CCCC2C1=NCCN1 (stereo not given) [Tetrahydrozoline·HCl] | 107 | 102
NCC(=O)CCC(=O)O [Aminolevulinic Acid·HCl] | 122 | 86.5
COC1=CC(=O)C[C@@H](C)[C@]12Oc1c(Cl)c(OC)cc(OC)c1C2=O [Griseofulvin] | 106 | 89.6
CCN(CC)CCNC(=O)c1ccc(N)cc1 [Procainamide . hydrochloride] | 64.5 | 108
N=C(NCCCCCCNC(=N)NC(=N)Nc1ccc(Cl)cc1)NC(=N)Nc1ccc(Cl)cc1 [Chlorhexidine Dihydrochloride] | 52 | 33
Nc1ccc(S(=O)(=O)c2ccc(N)cc2)cc1 [Dapsone] | 112 | 85.9
COCCc1ccc(OCC(O)CNC(C)C)cc1 (stereo not given) [Metoprolol Tartrate] | 76.6 | 102
CC(C)NCC(O)COc1ccc(CCOCC2CC2)cc1 (stereo not given) [Betaxolol hydrochloride] | 61 | 108
NC12CC3CC(CC(C3)C1)C2 [Amantadine·HCl] | 61.7 | 116
CC(=O)[C@H]1CC[C@H]2[C@@H]3CCC4=CC(=O)CC[C@]4(C)[C@H]3CC[C@]12C [Progesterone] | 65.5 | 111
C=C(c1ccc(C(=O)O)cc1)c1cc2c(cc1C)C(C)(C)CCC2(C)C [Bexarotene] | 63 | 101
O=C1O[C@H]([C@@H](O)CO)C(O)=C1O [L-Ascorbic Acid] | 110 | 103
CCN(CC)CCOC(=O)C1(C2CCCCC2)CCCCC1 [Dicyclomine·HCl] | 114 | 91.2
CC1=C(C(=O)O)N2C(=O)[C@@H](NC(=O)[C@H](N)c3ccccc3)[C@H]2SC1 [Cephalexin Monohydrate] | 102 | 74.4
OCCOCCN1CCN(C(c2ccccc2)c2ccc(Cl)cc2)CC1 (stereo not given) [Hydroxyzine dihydrochloride] | 99.7 | 101
CNNCc1ccc(C(=O)NC(C)C)cc1 [Procarbazine·HCl] | 67.4 | 106
O=C(O)[C@H]1/C(=C/CO)O[C@@H]2CC(=O)N21 [Clavulanate Potassium] | 110 | 91.1
O=NN(CCCl)C(=O)NCCCl [Carmustine] | 110 | 101
COc1ccc2cc(CCC(C)=O)ccc2c1 [Nabumetone] | 70.5 | 95
CCCCCCCCCC(=O)N[C@@H](Cc1c[nH]c2ccccc12)C(=O)N[C@H](CC(N)=O)C(=O)N[C@@H](CC(=O)O)C(=O)N[C@@H]1C(=O)NCC(=O)N[C@@H](CCCN)C(=O)N[C@@H](CC(=O)O)C(=O)N[C@H](C)C(=O)N[C@@H](CC(=O)O)C(=O)NCC(=O)N[C@H](CO)C(=O)N[C@@H]([C@H](C)CC(=O)O)C(=O)N[C@@H](CC(=O)c2ccccc2N)C(=O)O[C@@H]1C [Daptomycin] | 116 | 86.5
Cc1ccc(S(=O)(=O)NC(=O)NN2CCCCCC2)cc1 [Tolazamide] | 66.2 | 95.2
CO[C@H]1/C=C/O[C@@]2(C)Oc3c(C)c(O)c4c(c3C2=O)C2=NC3(CCN(CC(C)C)CC3)NC2=C(NC(=O)/C(C)=C\C=C\[C@H](C)[C@H](O)[C@@H](C)[C@@H](O)[C@@H](C)[C@H](OC(C)=O)[C@@H]1C)C4=O [Rifabutin] | 112 | 107
CCCCc1ncc(/C=C(\Cc2cccs2)C(=O)O)n1Cc1ccc(C(=O)O)cc1 [Eprosartan Mesylate] | 59.3 | 119
COc1cc2nc(N3CCN(C(=O)c4ccco4)CC3)nc(N)c2cc1OC [Prazosin hydrochloride] | 56.1 | 123
Nc1nc2c(ncn2COCCO)c(=O)[nH]1 [Acyclovir] | 67.5 | 96.5
NS(=O)(=O)Cc1noc2ccccc12 [Zonisamide] | 62 | 120
O=C1[C@H](CC[C@H](O)c2ccc(F)cc2)[C@@H](c2ccc(O)cc2)N1c1ccc(F)cc1 [Ezetimibe] | 113 | 91.7
CCCCN1C[C@H](O)[C@@H](O)[C@H](O)[C@H]1CO [Miglustat (N-Butyldeoxynojirimycin·HCl)] | 69.6 | 97.2

Among those listed so far, two have an NH in an aromatic ring.
SMILES | cell viability (Saos-2) | cell viability (U2OS)
CCCCCCCCCC(=O)N[C@@H](Cc1c[nH]c2ccccc12)C(=O)N[C@H](CC(N)=O)C(=O)N[C@@H](CC(=O)O)C(=O)N[C@@H]1C(=O)NCC(=O)N[C@@H](CCCN)C(=O)N[C@@H](CC(=O)O)C(=O)N[C@H](C)C(=O)N[C@@H](CC(=O)O)C(=O)NCC(=O)N[C@H](CO)C(=O)N[C@@H]([C@H](C)CC(=O)O)C(=O)N[C@@H](CC(=O)c2ccccc2N)C(=O)O[C@@H]1C [Daptomycin] | 116 | 86.5
Nc1nc2c(ncn2COCCO)c(=O)[nH]1 [Acyclovir] | 67.5 | 96.5
